{"source": "PubChem BioAssay AID1259405 – NCATS, 2018", "assay": "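Mouse-designed siRNAs used to find CHO productivity engineering targets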 (primary screen)", "system": "Chinese hamster CHO-K1 ovary cells with stable secreted eGFP expression", "knock-down reagent": "single siRNA against mouse genes, 0.8 pmol siRNA per well (2 µl of 400 nM stock)", "timing": "3 days", "measurement": "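Per-well intracellular GFP measured by laser scanning cytometry, plus viability from ATP luminescence, each relative to plate median of non-targeting control wells, in %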", "scale": "GFP, % of control: higher = more GFP per well, higher productivity; viability (ATP), % of control: higher = more viable cells (more ATP)", "active means": "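Called active when intracellular GFP, relative to negative control, is at or above 120%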", "note": "The deposit covers about 50,000 reagents; below is a part drawn at random. In the full data, about 4,000 (8%) are marked active. 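Mouse siRNA library applied to hamster cells; one well for each siRNA.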 Entries without a mark were called inactive."}
{"gene symbol":"Sema6d","PubChem SID":"SID363541600","GFP, % of control":93.5,"viability (ATP), % of control":98}
{"gene symbol":"Sema6d","PubChem SID":"SID363553192","GFP, % of control":44.1,"viability (ATP), % of control":37.7}
{"gene symbol":"Sema6d","PubChem SID":"SID363566516","GFP, % of control":61.4,"viability (ATP), % of control":51.1}
{"gene symbol":"Or8b54","PubChem SID":"SID363554703","GFP, % of control":65.5,"viability (ATP), % of control":60.5}
{"gene symbol":"Or8b54","PubChem SID":"SID363568150","GFP, % of control":61.3,"viability (ATP), % of control":71}
{"gene symbol":"Or8b54","PubChem SID":"SID363586209","GFP, % of control":109,"viability (ATP), % of control":100}
{"gene symbol":"Wbp2","PubChem SID":"SID363556897","GFP, % of control":79.4,"viability (ATP), % of control":50.5}
{"gene symbol":"Wbp2","PubChem SID":"SID363563801","GFP, % of control":70.9,"viability (ATP), % of control":75.8}
{"gene symbol":"Wbp2","PubChem SID":"SID363587347","GFP, % of control":75.7,"viability (ATP), % of control":78.4}
{"gene symbol":"Or1j19","PubChem SID":"SID363554218","GFP, % of control":"125 (active)","viability (ATP), % of control":102}
{"gene symbol":"Or1j19","PubChem SID":"SID363567665","GFP, % of control":"175 (active)","viability (ATP), % of control":82.4}
{"gene symbol":"Or1j19","PubChem SID":"SID363585022","GFP, % of control":71.2,"viability (ATP), % of control":109}
{"gene symbol":"Atxn3","PubChem SID":"SID363541159","GFP, % of control":85.7,"viability (ATP), % of control":80.6}
{"gene symbol":"Atxn3","PubChem SID":"SID363555786","GFP, % of control":71.3,"viability (ATP), % of control":92.5}
{"gene symbol":"Atxn3","PubChem SID":"SID363566075","GFP, % of control":66.1,"viability (ATP), % of control":84.8}
{"gene symbol":"Pcdhga9","PubChem SID":"SID363541878","GFP, % of control":72.6,"viability (ATP), % of control":57.4}
{"gene symbol":"Pcdhga9","PubChem SID":"SID363553470","GFP, % of control":85.5,"viability (ATP), % of control":64}
{"gene symbol":"Pcdhga9","PubChem SID":"SID363566794","GFP, % of control":60.8,"viability (ATP), % of control":63.1}
{"gene symbol":"Gata2","PubChem SID":"SID363573241","GFP, % of control":53.1,"viability (ATP), % of control":58.9}
{"gene symbol":"Gata2","PubChem SID":"SID363588480","GFP, % of control":66.9,"viability (ATP), % of control":63}
{"gene symbol":"Igdcc4","PubChem SID":"SID363555326","GFP, % of control":58,"viability (ATP), % of control":26.5}
{"gene symbol":"Igdcc4","PubChem SID":"SID363563987","GFP, % of control":70,"viability (ATP), % of control":69.1}
{"gene symbol":"Igdcc4","PubChem SID":"SID363587533","GFP, % of control":82.2,"viability (ATP), % of control":98.1}
{"gene symbol":"Zfp275","PubChem SID":"SID363573557","GFP, % of control":34.6,"viability (ATP), % of control":70.6}
{"gene symbol":"Zfp275","PubChem SID":"SID363581301","GFP, % of control":44.7,"viability (ATP), % of control":70.8}
{"gene symbol":"Zfp275","PubChem SID":"SID363583765","GFP, % of control":23.8,"viability (ATP), % of control":57.7}
{"gene symbol":"Or7g12","PubChem SID":"SID363554530","GFP, % of control":52,"viability (ATP), % of control":50.7}
{"gene symbol":"Or7g12","PubChem SID":"SID363567977","GFP, % of control":69.6,"viability (ATP), % of control":53.7}
{"gene symbol":"Or7g12","PubChem SID":"SID363586036","GFP, % of control":84.7,"viability (ATP), % of control":67.5}
{"gene symbol":"Or7e168","PubChem SID":"SID363554561","GFP, % of control":"163 (active)","viability (ATP), % of control":74.1}
{"gene symbol":"Or7e168","PubChem SID":"SID363568008","GFP, % of control":117,"viability (ATP), % of control":53.8}
{"gene symbol":"Or7e168","PubChem SID":"SID363586067","GFP, % of control":109,"viability (ATP), % of control":67.1}
{"gene symbol":"Slc16a12","PubChem SID":"SID363574598","GFP, % of control":80.8,"viability (ATP), % of control":71.7}
{"gene symbol":"Slc16a12","PubChem SID":"SID363575654","GFP, % of control":37.7,"viability (ATP), % of control":49.9}
{"gene symbol":"Slc16a12","PubChem SID":"SID363580230","GFP, % of control":102,"viability (ATP), % of control":84}
{"gene symbol":"H2-T13","PubChem SID":"SID363553534","GFP, % of control":42.8,"viability (ATP), % of control":49.2}
{"gene symbol":"H2-T13","PubChem SID":"SID363561491","GFP, % of control":45.3,"viability (ATP), % of control":53.1}
{"gene symbol":"H2-T13","PubChem SID":"SID363565229","GFP, % of control":96.3,"viability (ATP), % of control":87.7}
{"gene symbol":"Ppih","PubChem SID":"SID363568675","GFP, % of control":95.5,"viability (ATP), % of control":92.6}
{"gene symbol":"Ppih","PubChem SID":"SID363576067","GFP, % of control":92.3,"viability (ATP), % of control":71.1}
{"gene symbol":"Ppih","PubChem SID":"SID363578883","GFP, % of control":85.2,"viability (ATP), % of control":66.4}

Copied from the list.
Under “viability (ATP), % of control”, Zfp275 [SID363583765] reads 57.7
Value of Or1j19 [SID363567665] in “viability (ATP), % of control”: 82.4 (active)
